Laboratory results: the supplement of paper PMC9744312
Counter-ions that a name gives are not always drawn. This is one part of the list. Single values of this set are uncertain.

test system: Peyronie's disease tunica albuginea primary fibroblasts; experiment: inhibition of TGF-beta1-induced alpha-SMA expression (myofibroblast transformation), relative to TGF-beta1-only and untreated controls; higher = stronger inhibition of myofibroblast transformation; conditions: 10 µM; TGF-beta1 10 ng/mL; 72 h

Row | Compound | inhibition of TGF-beta1-induced alpha-SMA expression [%]
1 | CC1(C)S[C@@H]2[C@H](NC(=O)[C@H](N)c3ccccc3)C(=O)N2[C@H]1C(=O)O [Ampicillin Trihydrate] | -21.2
2 | CC1(C)S[C@@H]2[C@H](NC(=O)[C@H](N)c3ccccc3)C(=O)N2[C@H]1C(=O)O [Ampicillin sodium] | 6.06
3 | O=C(O)c1cc(=O)[nH]c(=O)[nH]1 [Orotic acid (6-Carboxyuracil)] | 7.04
4 | O=c1n(CCCN2CCN(c3cccc(Cl)c3)CC2)nc2ccccn12 [Trazodone HCl] | 26.9
5 | Cc1ccc(-n2nc(C(C)(C)C)cc2NC(=O)NCc2cc(F)ccc2Oc2ccc3c(cnn3CCO)c2)cc1 [Pexmetinib (ARRY-614)] | 60.4
6 | O=C(NC[C@H](O)CO)c1ccncc1Nc1ccc(I)cc1F | -170
7 | CCOC(=O)[C@H](CCc1ccccc1)N[C@@H](C)C(=O)N1C(=O)N(C)C[C@H]1C(=O)O [Imidapril HCl] | -8.01
8 | C[C@@H]1C[C@H]2[C@@H]3CCC4=CC(=O)C=C[C@]4(C)[C@@]3(Cl)[C@@H](O)C[C@]2(C)[C@@]1(OC(=O)c1ccco1)C(=O)CCl [Mometasone furoate] | 73
9 | C[C@]12CCC3=C4CCC(=O)C=C4CC[C@H]3[C@@H]1CC[C@@]2(O)CC#N [Dienogest] | 21.9
10 | O=c1oc2cc(O)ccc2s1 [Tioxolone] | -15.4
11 | O=C(O)c1ccccc1O [Salicylic acid] | 25.3
12 | C/C(=C\C(=O)OCCCCCCCCC(=O)O)C[C@@H]1OC[C@H](C[C@@H]2O[C@H]2[C@@H](C)[C@H](C)O)[C@@H](O)[C@H]1O [Mupirocin calcium] | 22.7
13 | C/C(=C\C(=O)OCCCCCCCCC(=O)O)C[C@@H]1OC[C@H](C[C@@H]2O[C@H]2[C@@H](C)[C@H](C)O)[C@@H](O)[C@H]1O [Mupirocin] | 14.9
14 | N/N=c1\[nH][nH]/c(=N\N)c2ccccc12 [Dihydralazine sulphate] | -30.7
15 | CN/C(=N\CCSCc1nc[nH]c1C)NC#N [Cimetidine] | 25.4
16 | CC(C)N(CCCCOCC(=O)NS(C)(=O)=O)c1cnc(-c2ccccc2)c(-c2ccccc2)n1 [Selexipag] | 14.4
17 | NC(=O)c1ccc(I)c([N+](=O)[O-])c1 [Iniparib (BSI-201)] | -12.9
18 | C#C[C@]1(O)CC[C@H]2[C@@H]3CCC4=CC(=O)CC[C@@H]4[C@H]3C(=C)C[C@@]21CC [Etonogestrel] | 27.9
19 | O=C(O)c1cc(/N=N/c2ccc(S(=O)(=O)Nc3ccccn3)cc2)ccc1O [Sulfasalazine] | -14.8
20 | CC(=O)c1c(C)c2cnc(Nc3ccc(N4CCNCC4)cn3)nc2n(C2CCCC2)c1=O | > 100

An excerpt of these results, as a markdown table:

| Row | Compound | inhibition of TGF-beta1-induced alpha-SMA expression [%] |
| --- | --- | --- |
| 13 | C/C(=C\C(=O)OCCCCCCCCC(=O)O)C[C@@H]1OC[C@H](C[C@@H]2O[C@H]2[C@@H](C)[C@H](C)O)[C@@H](O)[C@H]1O [Mupirocin] | 14.9 |
| 20 | CC(=O)c1c(C)c2cnc(Nc3ccc(N4CCNCC4)cn3)nc2n(C2CCCC2)c1=O | > 100 |
